Laboratory results: PubChem BioAssay AID1347076 (National Center for Advancing Translational Sciences (NCATS), 2019)
About 13,000 (3.2%) of roughly 400,000 compounds were called active. Inconclusive results, whose numbers are uncertain, are shown with a selection of clear calls. Calls follow the shape of the dose curve; as a rule, active = well fitted cell-killing curve with a large enough effect; inconclusive = small, poorly fitted or top-dose-only effect, or effect the other way; inactive = flat fitted curve, though single readings scatter. A potency beside an inconclusive call is a rough fit, not a confirmed value.

experiment: qHTS assay for MDR1-selective chemotherapeutics: Primary screen using the drug-selected MDR subline cells KB-V1; details: KB-V1 MDR cells viability, CellTiter-Glo, 72 h; activity change, negative = cytotoxicity: at 46.1 µM (top of the series); also: nearly all actives have a fitted effect of over 60% in size
Summary of the method: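 Cytotoxicity toward P-gp-expressing KB-V1 cells was determined as loss of CellTiter-Glo luminescence after 72 h at 37 degrees C. Compounds were tested in quantitative HTS format across a concentration range, with curves fitted to normalized data.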
% is scaled to controls: 0 for no effect and ±100 for the full control effect; potency is read from the fitted curve at half-maximal effect.

SMILES	Potency	activity change, negative = cytotoxicity
CCOC(=O)N1CCN(C(=O)Cc2ccccc2[N+](=O)[O-])CC1	inconclusive: 18.4 µM [rising, single point]	–
CSCc1ccc(C(=O)OCC(=O)NC2CCCC2)o1	inconclusive: 23.1 µM [rising, partial curve]	–
CC(C)(C)CC(C)(C)N=C1Nc2ccc(Cl)cc2N[C@]12C[C@H]1CCCC(=O)N3CC[C@@H](C2)[C@@H]13	active: 20.6 µM	–
CC(C)CC1(C)NC(=O)N(CC(=O)Nc2ccc3c(c2)CCC3)C1=O (stereo not drawn)	inconclusive: 29.1 µM [cytotoxic, single point]	–
COc1cccc(NC(=O)c2sc3nc4n(c(=O)c3c2C)CCC4)c1	–	inconclusive: -33.5%
COc1ccc(S(=O)(=O)N2CCCc3ccccc32)cc1[N+](=O)[O-]	inconclusive: 0.731 µM [cytotoxic, full curve, poor fit]	–
COC(=O)C1=C(C)N=C2SCCC(=O)N2C1c1ccc(C(=O)OC)cc1 (stereo not drawn)	inconclusive: 29.1 µM [cytotoxic, single point]	–
O=C(C[n+]1ccc(Cl)c2ccc(Cl)cc21)c1ccc(F)cc1	–	inactive: -15.7%
COc1ccc2[nH]c(=O)c(CN(Cc3ccco3)C(c3nnnn3Cc3ccccc3)C(C)C)cc2c1 (stereo not drawn)	inconclusive: 20.6 µM [cytotoxic, single point]	–
Cc1cc(=O)[nH]c(N/N=C/c2c(C)nn(-c3ccc(F)cc3)c2Cl)n1	inconclusive: 10.3 µM [cytotoxic, partial curve]	–
CCOC(=O)CSc1ccc2nnc(-c3ccccc3)n2n1	inconclusive: 29.1 µM [rising, single point]	–
CN(c1ccccc1)S(=O)(=O)c1ccc(C(=O)Nc2nnc(-c3ccco3)o2)cc1	inconclusive: 5.17 µM [cytotoxic, partial curve]	–
CC1(C(=O)NS(=O)(=O)c2ccc(Cl)s2)CCN1C(=O)Cc1ccc(Cl)cc1Cl (stereo not drawn)	–	inactive: 2.53%
COc1ccc(CCN2CC(C(=O)OCC(=O)N(C)CC(=O)Nc3ccccc3Cl)CC2=O)cc1OC (stereo not drawn)	inconclusive: 18.4 µM [rising, partial curve, poor fit]	–
Cc1ccc(NC(=O)c2cccc(N3C(=O)C4C5CCC(C5)C4C3=O)c2)c(C)c1 (stereo not drawn)	active: 4.11 µM	–
O=S(=O)(CCSc1nc2ccccc2s1)c1nc2ccccc2s1	inconclusive: 18.4 µM [cytotoxic, single point]	–
Cc1cccc(N2CCC(N=CN(C)C)=N2)c1	inconclusive: 29.1 µM [cytotoxic, single point]	–
COC(=O)Cc1ccc(OC2(C)CCN(Cc3ccccc3OC(F)F)C2)cc1 (stereo not drawn)	–	inactive: 5.44%

Exported with bars between the fields: part of the list above.
SMILES | Potency | activity change, negative = cytotoxicity
CCOC(=O)N1CCN(C(=O)Cc2ccccc2[N+](=O)[O-])CC1 | inconclusive: 18.4 µM [rising, single point] | –
CSCc1ccc(C(=O)OCC(=O)NC2CCCC2)o1 | inconclusive: 23.1 µM [rising, partial curve] | –
CC(C)(C)CC(C)(C)N=C1Nc2ccc(Cl)cc2N[C@]12C[C@H]1CCCC(=O)N3CC[C@@H](C2)[C@@H]13 | active: 20.6 µM | –
CC(C)CC1(C)NC(=O)N(CC(=O)Nc2ccc3c(c2)CCC3)C1=O (stereo not drawn) | inconclusive: 29.1 µM [cytotoxic, single point] | –
